# This is one part of the list. Shown are side measurements of this screen, not its main read-out; they come without a call. Most of these compounds were active or inconclusive in the main read-out, so they are no random draw. The note in brackets gives the kind of curve behind each potency; many fits are weak.
# Assay: qHTS Assay for Lipid Storage Modulators in Drosophila S3 Cells;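 for cell number change: cells counted by Cell Tracker Red CMTPX staining in the red channel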
# Conditions: BODIPY lipid droplet fluorescence, 18-24 h; for cell number change: measured here: cell count max response, cells fed with added oleic acid
# Procedure, shortened: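 Laser-scanning cytometry quantifies lipid droplet accumulation (500–530 nm total intensity; droplet/cell object ratio) in oleic acid-fed (400 uM added) Drosophila S3 cells treated with a concentration series. 20 uM Triacsin C defined 100% inhibition.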
# [1] = measured here: lipid fluorescence (Fed channel) AC50, cells fed with added oleic acid
# [2] = measured here: cell number channel AC50, cells fed with added oleic acid
Structure (SMILES),cell number change [%],AC50 [1],AC50 [2]
COc1ccc(/C=N/NC(=O)CC(=O)NCc2cccnc2)cc1,-27,"20.6 µM [falling, single point]",
CCOC(=O)N1CCN(S(=O)(=O)c2ccc(C(=O)Nc3nc4ccc(F)cc4s3)cc2)CC1,-16,,
O=C(CCCCCBr)N1CCC(CC2CC(c3ccc(Cl)cc3)=NO2)(C(=O)NCC2CCCCC2)CC1 (centres undefined),19.1,,"0.231 µM [rising, full curve, poor fit]"
CCOc1ccc(-c2nc(C#N)c(N3CCN(Cc4ccccc4)CC3)o2)cc1,-15.6,"0.00461 µM [rising, full curve, poor fit]",
O=C(COC(=O)CCSc1ccccc1)NCc1ccc(F)cc1,-61.8,"29.1 µM [falling, single point]","2.91 µM [falling, full curve]"
Cc1cccn2c(=O)c(/C=C3\SC(=S)N(CC(C)C)C3=O)c(NCCCOC(C)C)nc12,-1.39,,
COc1ccccc1NC(=O)c1cc(S(=O)(=O)N2CCC3(CC2)OCCO3)ccc1F,7.68,"5.17 µM [rising, full curve, poor fit]","0.00517 µM [rising, full curve, poor fit]"
O=C1CC(c2ccccc2)CC(=O)C1Sc1ccc(Cl)cc1 (centres undefined),4.26,"18.4 µM [rising, partial curve, poor fit]",
CC(C)N(C(=O)CSc1ncnc2sc(-c3ccccc3)cc12)C(C)C,8.4,"0.731 µM [rising, single point]",
Cn1c(=O)c2c(ncn2CC(=O)OCC(=O)Nc2ccc(Cl)cc2Cl)n(C)c1=O,5.04,,"2.06 µM [falling, partial curve, poor fit]"
CCCN1C2CCCC1CC(NC(=O)c1ccccc1OCC)C2 (centres undefined),30.1,,"18.4 µM [rising, single point]"
Cc1nc(NC(=O)C2CC3CCCC(C2)C3=O)sc1C (centres undefined),,,"4.11 µM [rising, single point]"
O=C(Nc1ccccc1)Nc1nnc(Cc2ccc(F)cc2)s1,,"0.116 µM [falling, full curve]",
O=C(COC(=O)c1cc(S(=O)(=O)N2CCOCC2)ccc1Cl)NC1CC1,11.2,"0.731 µM [rising, partial curve, poor fit]",
Cc1cc(OCCN2CCN(S(=O)(=O)c3ccccc3F)CC2)ccc1C(C)C,-46.4,"0.0731 µM [falling, full curve]","16.4 µM [falling, partial curve]"
Cc1cc(N2CCOCC2)n2nc(C)c(-c3ccc(Cl)cc3)c2n1,-2.13,,"0.82 µM [falling, single point]"
CCc1ccc(S(=O)(=O)NC(CC(=O)O)c2ccccc2)cc1 (centres undefined),-6.24,"1.3 µM [rising, partial curve]",
O=c1[nH][nH]cc1C=Nc1ccccc1Cl,-16.7,,"0.146 µM [falling, full curve, poor fit]"
C=CCOc1ccc(C(=O)CC)cc1OC,,"10.3 µM [falling, single point]","4.61 µM [rising, single point]"
O=C(CSc1nnc(-c2cccs2)n1-c1cccc(Cl)c1)c1cccc2c1OCCO2,,"2.31 µM [rising, partial curve]","2.06 µM [rising, partial curve]"
COc1cccc(NC(=O)N2CCCC2C(=O)NC2CC2)c1 (centres undefined),-3.39,,

# 3 of the compounds above, with bars between the fields.
Structure (SMILES) | cell number change [%] | AC50 [1] | AC50 [2]
Cc1nc(NC(=O)C2CC3CCCC(C2)C3=O)sc1C (centres undefined) |  |  | 4.11 µM [rising, single point]
O=C(Nc1ccccc1)Nc1nnc(Cc2ccc(F)cc2)s1 |  | 0.116 µM [falling, full curve] | 
O=C(COC(=O)c1cc(S(=O)(=O)N2CCOCC2)ccc1Cl)NC1CC1 | 11.2 | 0.731 µM [rising, partial curve, poor fit] | 

# Looked up above:
# In cell number change [%], `COc1cccc(NC(=O)N2CCCC2C(=O)NC2CC2)c1` (centres undefined) has -3.39
# In cell number change [%], `CCCN1C2CCCC1CC(NC(=O)c1ccccc1OCC)C2` (centres undefined) has 30.1

# (listing goes on)

Structure (SMILES),cell number change [%],AC50 [1],AC50 [2]
Cc1csc2nc(O)c(C(=O)NCCN3CCOCC3)c(=O)n12,-10.4,,
COc1cc(OC)c(NS(=O)(=O)c2cc3[nH]c(=O)c(=O)[nH]c3cc2C)cc1Cl,15.3,"6.51 µM [rising, single point]",
Cc1nc2ncnn2c(C)c1Cc1c(Cl)cccc1Cl,4.98,,
CC(C(=O)O)c1ccc(-c2ccccc2)c(F)c1 (centres undefined),-15.7,"0.00461 µM [falling, full curve, poor fit]",
N#CC1(C#N)CC(C=O)=C(N)C1(C#N)CC(=O)c1ccc(F)cc1 (centres undefined),0.424,"6.51 µM [falling, single point]",
O=C1CC(c2cccc(F)c2)c2c(c3ccccc3[nH]c2=O)O1 (centres undefined),-112,,
CCCOC(c1ccccc1)(c1ccccc1)C(Oc1nc(C)cc(C)n1)C(=O)O (centres undefined),,"4.11 µM [rising, full curve]",
COc1ccc(C2CCCN2C(=S)Nc2ccc(C)c(C)c2)cc1OC (centres undefined),23.4,"0.0082 µM [rising, full curve, poor fit]",
CC(=O)Oc1ccccc1C(=O)N(C1CCCCC1)C1CCCCC1,-30.7,,"16.4 µM [falling, single point]"
COc1ccccc1C(=O)NC(=O)COC(=O)/C(=C/c1ccccc1)NC(C)=O,-29,"16.4 µM [falling, single point]",
COc1ccc(C2CC(c3ccccc3)=NN2C(=O)COC(=O)c2cc(S(=O)(=O)N3CCOCC3)ccc2F)cc1 (centres undefined),9.97,"16.4 µM [falling, single point]",
Cc1cc2nc3c(nc2cc1C)C1(C(=O)O)CCC3(C)C1(C)C (centres undefined),-78.2,"20.6 µM [falling, single point]","16.4 µM [falling, partial curve]"
COc1ccc(S(=O)(=O)N(C)c2ccc(C(=O)NC3CCCC3)cc2)cc1,-21.1,"25.9 µM [falling, partial curve, poor fit]",
CSc1ccc(/C=C(/NC(=O)c2ccccc2)C(=O)NCCCn2ccnc2)cc1,22.3,,
O=C(NNC(=O)c1cc(Cl)nc2ccccc12)c1ccccc1F,,,"6.51 µM [rising, single point]"
O=S(=O)(c1ccc(-c2ccon2)s1)N1CCN(CCN2CCOCC2)CC1,-11.9,"0.0291 µM [falling, full curve, poor fit]",
COc1ccccc1N1CCN(C(CNS(=O)(=O)c2cc(F)ccc2F)c2cccnc2)CC1 (centres undefined),35.4,,"0.146 µM [rising, full curve, poor fit]"
N#CCCn1nc(-c2ccccc2)cc1Nc1ccccc1NC(=O)c1cccs1,-21.1,"0.58 µM [rising, partial curve]",
COc1ccc(C(=O)Oc2c(OC)cc(C(=S)N3CCOCC3)cc2OC)cc1OC,-1.46,,
COc1ccc(-c2nnc(SCC(=O)NC3CCCCC3)o2)cc1,16.7,"29.1 µM [falling, partial curve]",
N#CCCN1CCN(S(=O)(=O)c2ccc(S(=O)(=O)N3CCCCCC3)cc2)CC1,-23.9,"3.26 µM [falling, full curve, poor fit]",

Structure (SMILES),cell number change [%],AC50 [1],AC50 [2]
CC1CN(Cc2ccccn2)CCC1=O (centres undefined),-45.7,"0.058 µM [falling, full curve]","3.66 µM [falling, full curve, poor fit]"
CCN(CC(=O)Nc1ccccc1C(F)(F)F)C(=O)c1ccc2c(=O)n3c(nc2c1)CCC3,-12.2,"0.082 µM [falling, partial curve, poor fit]",
COc1ccc(N2CCN(C(=O)CNC(=O)c3ccc(Br)o3)CC2)cc1,-2.31,"0.00461 µM [falling, full curve, poor fit]",
O=C(NCc1ccco1)C(C(=O)c1ccccc1)n1ccccc1=O (centres undefined),4.63,,
COc1ccc(NC(=O)c2cc(-c3ccc(OC)c(OC)c3)nc3ccccc23)c(OC)c1,13.7,"0.651 µM [falling, single point]",
O=C1CN(S(=O)(=O)c2ccc(Br)cc2)c2ccccc2N1,16.2,"0.58 µM [rising, single point]",
CC(=O)Nc1ccc2nc(-c3ccco3)[nH]c2c1,-51.6,,
Cc1cc(-c2n[nH]c(=S)n2/N=C/C(Cl)=C/c2ccccc2)n[nH]1,-54.3,"25.9 µM [falling, partial curve, poor fit]","13 µM [falling, partial curve]"
CCOC(=O)CN1NC2(CCC(C)CC2)NC1=S (centres undefined),,"6.51 µM [falling, single point]",
N#CC1=C(N)Oc2n[nH]c(-c3cccs3)c2C1c1ccsc1 (centres undefined),-11.3,,
COc1ccc(CNC(=O)C(C)N2C(=O)NC3(CCCCCCC3)C2=O)cc1 (centres undefined),-42.1,"6.51 µM [falling, partial curve]","0.92 µM [falling, full curve]"
Cc1ccc(NC(=O)CCN2C(=O)C3CC=CCC3C2=O)cc1Cl (centres undefined),-37.4,"29.1 µM [falling, single point]","32.6 µM [falling, single point]"
CC(C)c1ccc(NC2CCCN(C(=O)c3ccco3)C2)cc1 (centres undefined),-14.2,"18.4 µM [rising, partial curve]",
C=CCNC(=O)COc1ccc(Br)cc1Cl,21,,"0.92 µM [rising, single point]"
COc1ccc(/C=N/n2c(SC)nnc2-c2ccccc2)cc1C,64.1,"1.3 µM [rising, full curve]","20.6 µM [rising, partial curve]"
CCCc1ccc(-c2cc(C(=O)NCCc3ccc(S(N)(=O)=O)cc3)c3ccccc3n2)cc1,-4.62,,
O=C1Nc2ccccc2C1(O)c1ccccc1 (centres undefined),43.5,,
COc1ccccc1NC(=O)CS(=O)(=O)c1cccc2nsnc12,-27.8,"0.0259 µM [falling, full curve, poor fit]",
O=C(CN1CCN(c2nc(-c3ccc(Cl)cc3)cs2)CC1)NCc1ccco1,39.2,"18.4 µM [rising, single point]","29.1 µM [rising, single point]"
